Experimental data from publication PMC11191282.
Results are given in words; binding and its absence hold for the method and conditions named. Binding seen in cells or lysates may run through a third protein. Some binding calls cover weakened binding; strength is not graded here.

Sequences of proteins named here, by UniProt entry; tags and fusion partners are left off. Residues count along the entry.
UniProt P52799, residues 28-333: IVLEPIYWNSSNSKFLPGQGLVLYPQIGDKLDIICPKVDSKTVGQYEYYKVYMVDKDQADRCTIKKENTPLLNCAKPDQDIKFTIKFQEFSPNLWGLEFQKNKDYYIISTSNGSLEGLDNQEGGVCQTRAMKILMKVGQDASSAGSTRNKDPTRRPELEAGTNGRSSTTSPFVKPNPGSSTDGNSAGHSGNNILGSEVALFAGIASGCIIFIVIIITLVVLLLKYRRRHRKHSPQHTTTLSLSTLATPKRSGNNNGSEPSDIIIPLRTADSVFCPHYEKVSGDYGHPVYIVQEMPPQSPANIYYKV

T1: VAV2 (UniProt P52735)
T1 sequence: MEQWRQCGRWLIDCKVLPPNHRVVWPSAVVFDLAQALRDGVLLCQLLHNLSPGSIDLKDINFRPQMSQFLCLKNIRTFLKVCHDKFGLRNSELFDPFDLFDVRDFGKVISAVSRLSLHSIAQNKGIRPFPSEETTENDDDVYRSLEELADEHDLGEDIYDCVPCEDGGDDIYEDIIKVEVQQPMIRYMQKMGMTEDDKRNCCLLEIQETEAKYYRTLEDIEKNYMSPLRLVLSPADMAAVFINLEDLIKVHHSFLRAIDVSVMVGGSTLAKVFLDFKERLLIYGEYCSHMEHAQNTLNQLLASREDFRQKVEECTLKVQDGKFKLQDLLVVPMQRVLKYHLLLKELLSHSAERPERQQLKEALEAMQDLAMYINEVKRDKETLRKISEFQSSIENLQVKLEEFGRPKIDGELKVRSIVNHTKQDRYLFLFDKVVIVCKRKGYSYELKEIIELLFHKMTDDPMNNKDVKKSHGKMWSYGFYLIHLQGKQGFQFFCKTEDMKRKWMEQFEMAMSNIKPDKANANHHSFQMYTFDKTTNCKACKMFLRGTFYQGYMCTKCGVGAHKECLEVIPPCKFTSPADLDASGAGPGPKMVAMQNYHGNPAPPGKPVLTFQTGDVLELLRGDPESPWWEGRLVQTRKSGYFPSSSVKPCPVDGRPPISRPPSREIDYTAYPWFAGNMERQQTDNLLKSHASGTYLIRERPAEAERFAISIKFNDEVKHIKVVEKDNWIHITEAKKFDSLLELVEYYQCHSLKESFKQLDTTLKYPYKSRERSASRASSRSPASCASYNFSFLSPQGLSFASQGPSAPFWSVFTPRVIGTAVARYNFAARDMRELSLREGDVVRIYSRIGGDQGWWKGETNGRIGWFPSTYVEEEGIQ

B1: VAV2 (protein, UniProt P52735 1-878)
chain: T1 sequence

Key:
VAV2 = target: T1, VAV2; assay: co-IP; lysate of HUVECs transfected with the EFNB2 and VAV2 overexpression plasmids; 500 µL supernatant with 8 µg IP antibody (EphrinB2 or VAV2) or control IgG at 4 °C for 12 h; magnetic beads 2 h at 4 °C; four washes with lysis buffer; Western blot
EphrinB2 = EphrinB2 (UniProt P52799); assay: as above

Row | Molecule | binding (VAV2) | binding (EphrinB2)
1 | EphrinB2 (from UniProt P52799 28-333) | binds | –
2 | B1 | – | binds
